Structures were worked out from names or drawings and are uncertain.
Tests used:
satellite cells [1] = assay: LINCS library screen for satellite cell proliferation (Hoechst 33342 high content imaging); conditions: determined in dose response; Tg:Pax7-nGFP satellite cells, 4 days
satellite cells [2] = assay: Proliferation in combination with TGF-beta inhibitor; conditions: added to the cultures
myoblast = conditions: differentiation media comprising 5% horse serum; FIG. 39

COc1nccc(-c2c(-c3ccc(F)cc3)ncn2C2CCC(O)CC2)n1 (stereo not drawn)
Optimal treatment concentration (satellite cells [1]): 5 µM

Cc1cccc(-c2n[nH]cc2-c2ccc3ncccc3n2)n1
proliferation, TGF-beta inhibitor alone (satellite cells [2]): slight increase in proliferation

N#CC(=Cc1ccc(O)c(O)c1)C(=O)NCc1ccccc1
myoblast differentiation (myoblast): drive myoblast differentiation
